{
  "source": "PubChem BioAssay AID1347423",
  "about": "(Functional Genomics Laboratory (NCATS/FGL), 2020)",
  "note": "Among all 52,000 sequences or so, about 210 (0.4%) were called active.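 Rule for the calls: active = gene whose silencing raises cell survival under the drug, median off-target-corrected z-score across its silencing RNAs 2 or more; inactive = the rest.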 The list shows a part of the results.",
  "data": [
    {"experiment": "Resistance to Poly (ADP-Ribose) Polymerase inhibitor: Gene Identification via Genome-wide siRNA Screen", "conditions": "mouse BRCA2 R2336H ES cells, olaparib, CellTiter-Glo viability; active compounds read high", "summary_of_the_method": "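Mouse BRCA2 R2336H ES cells were reverse-transfected with siRNA (20 nM final), treated at 48 h with 500 nM olaparib, and read by CellTiter-Glo after 72 h. Scores: MAD-based z per siRNA, median per gene, seed off-target correction.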", "values": [
      {"sequence": "CCACUAUGUUCUCUGGAUATT against Llglh", "z-score": "inactive: -0.783"},
      {"sequence": "GCGCGCUAAAAUGGAUGGCTT against Kng2", "z-score": "inactive: 0.346"},
      {"sequence": "GGAUUUUGCACUAUAACAATT against Wig1", "z-score": "inactive: 1.52"},
      {"sequence": "GGAAGAAGAAGAUAAAGCGTT against Gprk6", "z-score": "inactive: 0.408"},
      {"sequence": "GAAAGCAUUUAAUGCCCAATT against V1rg7", "z-score": "inactive: 0.125"},
      {"sequence": "GUACACUCAGGCUGAGGGUTT against Acyp1", "z-score": "inactive: -1.09"},
      {"sequence": "GCUCAUUUGUUUCCAAUAATT against Maf1", "z-score": "inactive: -0.212"},
      {"sequence": "GGUCGAAAGUCAACUCAGUTT against BC045600", "z-score": "inactive: -0.0753"},
      {"sequence": "GCGAAAGACGAUCAAAACCTT against Scn1a", "z-score": "inactive: 0.909"},
      {"sequence": "CCUUAUCUAUAACUCUGCUTT against Tirap", "z-score": "inactive: 1.31"},
      {"sequence": "GCUAUAUAAAGGCUGAGUATT against Emilin3", "z-score": "inactive: 0.704"},
      {"sequence": "GGUCAUGAACUUCACAAUUTT against Sgcd", "z-score": "inactive: 1.42"},
      {"sequence": "GGAAAUAUUACCUUUGUACTT against Sp3", "z-score": "inactive: -1.12"},
      {"sequence": "AGUUCACGUAGAACCACGCTT against Gm741", "z-score": "inactive: -0.322"},
      {"sequence": "GGAAGUGAACCAGUUGAGATT against Pcdh7", "z-score": "inactive: 1.79"},
      {"sequence": "GGCAAUGUGUGUCUACAGUTT against 4933411G11", "z-score": "inactive: -0.0784"},
      {"sequence": "GCACCUGGGCCUUUGAAUATT against Hes2", "z-score": "inactive: 0.29"},
      {"sequence": "CGAACGUGAUGAGUUAUGGTT against V1rg8", "z-score": "inactive: -0.455"},
      {"sequence": "CAAUAACACUGGUGCCGACTT against LOC384813", "z-score": "inactive: -0.00154"},
      {"sequence": "GGCUUGUAAUCCUAGAUGUTT against Uble1a", "z-score": "inactive: -1.42"},
      {"sequence": "GGGAAUUAAACAAUAUUGCTT against Cd163", "z-score": "inactive: 0.626"},
      {"sequence": "GGACCAGAAUGCAACUCUUTT against Pex5", "z-score": "inactive: -0.875"},
      {"sequence": "GGUGCCUGACCAAAAAGGATT against A830094I09Rik", "z-score": "active: 2.67"},
      {"sequence": "CCCACGGACUGGCCAGUAATT against 6430559E15Rik", "z-score": "inactive: -1.39"},
      {"sequence": "CGCAUCCUAAGAAAUGACATT against Blvrb", "z-score": "inactive: -0.0364"},
      {"sequence": "GGAAGUUCUUCCUAAGUACTT against Hsf2", "z-score": "inactive: -1.62"},
      {"sequence": "CCAAAUACUGUUCAAGAUGTT against Lypla1", "z-score": "inactive: 0.0916"},
      {"sequence": "GGCAGUAGAUGAAAAUAAATT against Nphp1", "z-score": "inactive: 0.483"},
      {"sequence": "CGCAGGUAAUUUGUUUGUGTT against Mtnr1b", "z-score": "inactive: 0.0788"},
      {"sequence": "GGAAAAAGCCAACAAUUUGTT against Spats1", "z-score": "inactive: 0.851"},
      {"sequence": "GGAGAUAAUCCUGAAUGGCTT against Hsd3b6", "z-score": "inactive: -0.764"},
      {"sequence": "GCGGUCUUUCUUUCUUCGATT against Sim2", "z-score": "inactive: 2.35"},
      {"sequence": "GGCCAGAGUAGCAACUGUATT against Mcpr1", "z-score": "inactive: 1.19"},
      {"sequence": "GGAAUUCCAUUCCAGUCGCTT against 1700012L04Rik", "z-score": "inactive: 0.605"},
      {"sequence": "GCACCGGAUUGAUUUUGUCTT against Pcyt1a", "z-score": "inactive: -0.342"},
      {"sequence": "CGUGAAGAUGACCGAUGAUTT against Rpl10a", "z-score": "inactive: -3.15"},
      {"sequence": "CGGGCUCACAGUUUCUACUTT against Ethe1", "z-score": "inactive: -0.394"},
      {"sequence": "CGCGAUCAUAGAUUGGGCUTT against Sec61b", "z-score": "inactive: -0.637"},
      {"sequence": "GGAACAAAGAUGUGUCUGGTT against Olfr31", "z-score": "inactive: -0.234"},
      {"sequence": "CCUCUAGUAAAGAAAUAGATT against 2610019N13Rik", "z-score": "inactive: -2.5"},
      {"sequence": "CGCAUUACUAUCACCAAAGTT against Samd4", "z-score": "inactive: 0.265"},
      {"sequence": "CCACAGGGACAACAAACUATT against Arid3b", "z-score": "inactive: 1.49"},
      {"sequence": "GGAAAUUUUUCGCAUGACCTT against Bat1a", "z-score": "inactive: -0.649"},
      {"sequence": "GCCGCUAGCAUGGUCUAUUTT against Apoa5", "z-score": "inactive: 0.129"},
      {"sequence": "GGCCGUGACAAAAUAGUAGTT against V1re3", "z-score": "inactive: -0.841"},
      {"sequence": "GCUUUUAUGCCACAAAUGATT against Pon1", "z-score": "inactive: -0.178"},
      {"sequence": "GGAAAGACAUGUAAUAUGUTT against 0610038F07Rik", "z-score": "inactive: 1.05"},
      {"sequence": "GGUUUUACUCCUUUAAUGUTT against Cbfa2t3h", "z-score": "inactive: 0.835"},
      {"sequence": "GGCUCAGAUCAAGCCAAAGTT against Cldn10", "z-score": "inactive: 1.1"},
      {"sequence": "CCAGGCUAUUUGUAUGCUGTT against C030002J06Rik", "z-score": "inactive: -0.0319"},
      {"sequence": "GGAUGAUGUGAUGAAGAUCTT against Fgfr4", "z-score": "inactive: -0.773"},
      {"sequence": "GCCAAAUACUUUUUUACCCTT against Slc38a2", "z-score": "inactive: 1.96"},
      {"sequence": "GGCCUUUUUUCUAUAUCUATT against Galnt3", "z-score": "inactive: 1.24"},
      {"sequence": "GGCAUCUCUAUCAAGUUGCTT against Rps17", "z-score": "inactive: -2.26"},
      {"sequence": "GUUGUGCAAUCAACAAGGUTT against 1110006G06Rik", "z-score": "inactive: 1.54"},
      {"sequence": "GGGAGCUGCUAAAAUAAACTT against Mtcp1", "z-score": "inactive: -0.326"},
      {"sequence": "GGAGAACAUGUUGAAGUAUTT against Atp8a1", "z-score": "inactive: 0.629"},
      {"sequence": "GGUCGAGUGCAAGUUGAAGTT against Taf13", "z-score": "inactive: 0.614"},
      {"sequence": "GGCAUUGAAUUAAAGAUACTT against Myct1", "z-score": "inactive: -0.0513"},
      {"sequence": "GGCCAAAGUCCACACAAGUTT against Asahl", "z-score": "inactive: -1.12"},
      {"sequence": "GCUCACAUUGAGUGGUUGGTT against 1200014J11Rik", "z-score": "inactive: -0.795"},
      {"sequence": "GCGGGUUAUUAACAUAUUUTT against Dlgh1", "z-score": "inactive: 0.646"},
      {"sequence": "GGAGGCAGAGAAGAUGAAATT against Pacsin3", "z-score": "inactive: 1.96"},
      {"sequence": "GGUAUUUCACUGGUUACGUTT against B3galt1", "z-score": "inactive: -0.64"},
      {"sequence": "CCUGUACUGAACUACUUGATT against Kctd5", "z-score": "inactive: 0.352"},
      {"sequence": "GGGAAAACCAUACAAAAUATT against Olfr228", "z-score": "inactive: -0.201"},
      {"sequence": "GACAGUUAACCUUUUAAGATT against 1810008A14Rik", "z-score": "inactive: 0.559"},
      {"sequence": "GGAUCUUAUUACUUCAAUGTT against AW547365", "z-score": "inactive: -0.411"},
      {"sequence": "CCAGUGGAUGAGGUCAUUGTT against 1110061N23Rik", "z-score": "inactive: -2.37"},
      {"sequence": "GCUUACCAAAAGGAUAUCCTT against 1110060O18Rik", "z-score": "inactive: 0.372"},
      {"sequence": "GGUUUUAGACAUUCAGAACTT against Eif2c4", "z-score": "inactive: 0.711"},
      {"sequence": "CCGUGGAUUAUUUUCAACGTT against Hcn1", "z-score": "inactive: -0.206"},
      {"sequence": "GGACUUCUACGACUUCAAGTT against Gpx7", "z-score": "inactive: 0.125"},
      {"sequence": "GGAAGUACAGAAUUUUGAATT against 2010005O13Rik", "z-score": "inactive: -0.388"},
      {"sequence": "CCAACAAAUUCAAUCAGGCTT against Nrip3", "z-score": "inactive: -0.621"},
      {"sequence": "GGGAUAUGUGACUAUGUUATT against Slc5a7", "z-score": "inactive: 2.63"},
      {"sequence": "GGCUUUAAUGAAAUUAUGGTT against Gm592", "z-score": "inactive: -0.345"},
      {"sequence": "CCUCCUACAUGUUCACAUUTT against Olfr1367", "z-score": "inactive: 1.47"},
      {"sequence": "GGUGUCUCUCUAUGAUUUATT against Otoa", "z-score": "inactive: 1.68"},
      {"sequence": "GGUAUAAAAGGUUGCCAAATT against Efnb2", "z-score": "inactive: 0.508"},
      {"sequence": "CCCGAGAAUGACUAUGAAGTT against Grid2ip", "z-score": "inactive: 0.165"},
      {"sequence": "GCAUCAUUAGUGGUGUAACTT against 6530402N02Rik", "z-score": "inactive: 1.22"},
      {"sequence": "GGGCCUUUGAAAACACCCUTT against AI841987", "z-score": "inactive: 0.485"},
      {"sequence": "GGUUCAACAUGAAAAUGAUTT against B230217C06Rik", "z-score": "inactive: -0.0916"},
      {"sequence": "GGCCUUGGGAAGGAAAGAGTT against Mospd1", "z-score": "inactive: -1.74"},
      {"sequence": "GGGCAAGCCGGUUUCAUUUTT against Col16a1", "z-score": "inactive: -1"},
      {"sequence": "GGUCAGAUGUUCUGGAAAATT against Ctsj", "z-score": "inactive: -0.836"},
      {"sequence": "GGAGAAUGACACCAGGUCUTT against Arc", "z-score": "inactive: -0.361"},
      {"sequence": "GGUGGAGAAAUCUGCUAAUTT against Lta4h", "z-score": "inactive: -0.489"},
      {"sequence": "GGAUGAAAGAGCUAUUCUUTT against Cnot8", "z-score": "inactive: 3.22"},
      {"sequence": "GGUCAAGUUCACCAAGAUATT against Aldh1a3", "z-score": "inactive: 1.01"},
      {"sequence": "GGUUGAGUUUCAGUGCAUCTT against Btbd5", "z-score": "inactive: -1.26"},
      {"sequence": "GGCAAACUCAUCCAUGUGCTT against Fabp3", "z-score": "inactive: -0.4"},
      {"sequence": "GGAUCCAGAUACUCCCAAGTT against Camp", "z-score": "inactive: -0.0866"},
      {"sequence": "GCAAAUAAGAUUGCGUCUGTT against MGC107514", "z-score": "inactive: 2.48"},
      {"sequence": "GGAUUUGUAAAUUACCUGGTT against Clecsf8", "z-score": "inactive: -0.376"},
      {"sequence": "GGACAUGAUGAGUGACCUGTT against Elmo1", "z-score": "inactive: -0.984"},
      {"sequence": "GCCAAUCUGAAAGGAUAUUTT against Tpst2", "z-score": "inactive: -0.805"},
      {"sequence": "GGUUUCUGUUUUGUCACACTT against 9330176C04Rik", "z-score": "inactive: 0.369"},
      {"sequence": "GCUCUUCCGCACUUUCAUUTT against 1700012L04Rik", "z-score": "inactive: 0.668"},
      {"sequence": "CCAUCUGAUUUCUUUCCAGTT against MGC78233", "z-score": "inactive: -0.642"},
      {"sequence": "GGUGAAGAGCAUCAUAACCTT against Fabp4", "z-score": "inactive: 0.199"},
      {"sequence": "CCCAGAGGUAAAGAAGGUCTT against 1700018L24Rik", "z-score": "inactive: 0.316"},
      {"sequence": "CGUGCAUCCCUAUAUCCUATT against Panx2", "z-score": "inactive: 0.682"}
    ]}
  ]
}
